These results are taken from paper doi:10.1101/643494.

Chains of the proteins cited; added tags and fusions are not shown. Lines headed by an entry give the natural chain unless they say otherwise; changes in a name come on top.
UniProt Q9C9E3: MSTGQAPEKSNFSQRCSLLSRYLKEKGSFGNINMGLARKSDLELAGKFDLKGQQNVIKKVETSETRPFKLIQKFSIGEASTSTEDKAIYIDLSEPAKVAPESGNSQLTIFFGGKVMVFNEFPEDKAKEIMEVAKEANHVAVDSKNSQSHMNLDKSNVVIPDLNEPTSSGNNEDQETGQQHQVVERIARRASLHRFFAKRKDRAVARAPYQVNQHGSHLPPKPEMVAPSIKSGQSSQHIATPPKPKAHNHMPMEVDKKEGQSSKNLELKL
UniProt Q9C5K8: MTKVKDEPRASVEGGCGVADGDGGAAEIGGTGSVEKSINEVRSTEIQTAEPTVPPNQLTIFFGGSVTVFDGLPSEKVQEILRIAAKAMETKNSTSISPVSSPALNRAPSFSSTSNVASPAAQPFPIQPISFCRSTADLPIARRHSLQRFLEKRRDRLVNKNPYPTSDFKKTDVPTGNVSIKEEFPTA
UniProt Q9S7M2: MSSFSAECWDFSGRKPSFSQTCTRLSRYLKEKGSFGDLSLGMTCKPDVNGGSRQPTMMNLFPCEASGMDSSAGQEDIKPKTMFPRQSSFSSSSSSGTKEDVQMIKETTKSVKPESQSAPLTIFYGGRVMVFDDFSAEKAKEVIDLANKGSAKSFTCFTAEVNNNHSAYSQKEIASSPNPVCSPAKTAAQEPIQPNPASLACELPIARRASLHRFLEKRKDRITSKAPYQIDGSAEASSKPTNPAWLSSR
UniProt Q9LMA8: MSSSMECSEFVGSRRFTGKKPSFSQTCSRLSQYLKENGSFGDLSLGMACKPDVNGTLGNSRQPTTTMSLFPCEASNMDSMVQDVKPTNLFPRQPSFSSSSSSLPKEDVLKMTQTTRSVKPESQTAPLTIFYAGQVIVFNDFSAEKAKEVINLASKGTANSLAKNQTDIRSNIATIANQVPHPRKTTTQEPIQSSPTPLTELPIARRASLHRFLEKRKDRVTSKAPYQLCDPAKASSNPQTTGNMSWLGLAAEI
UniProt Q9FIP9: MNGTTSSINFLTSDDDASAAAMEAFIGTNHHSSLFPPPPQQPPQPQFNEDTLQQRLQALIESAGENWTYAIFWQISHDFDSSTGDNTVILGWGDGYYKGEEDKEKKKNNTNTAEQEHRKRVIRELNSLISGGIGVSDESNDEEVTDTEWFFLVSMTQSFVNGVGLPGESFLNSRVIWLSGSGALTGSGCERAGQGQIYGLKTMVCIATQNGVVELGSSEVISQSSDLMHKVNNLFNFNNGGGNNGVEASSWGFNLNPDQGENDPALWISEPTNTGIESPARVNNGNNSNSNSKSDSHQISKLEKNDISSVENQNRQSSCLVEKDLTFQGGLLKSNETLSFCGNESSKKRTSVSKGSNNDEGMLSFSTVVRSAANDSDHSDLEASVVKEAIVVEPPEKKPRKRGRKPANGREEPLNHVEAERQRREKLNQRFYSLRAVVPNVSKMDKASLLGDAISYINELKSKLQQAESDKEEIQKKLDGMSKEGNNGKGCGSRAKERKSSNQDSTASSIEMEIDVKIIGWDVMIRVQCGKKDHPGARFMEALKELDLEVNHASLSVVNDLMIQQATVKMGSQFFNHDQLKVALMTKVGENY

The target of assay [1] is JAZ6 fused to the GAL4 BD (Arabidopsis thaliana) (UniProt Q9C9E3). Nature of the assay: two-hybrid.
Assay [2] concerns the target JAZ12 fused to the GAL4 BD (Arabidopsis thaliana) (UniProt Q9C5K8). The assay can be described thus: two-hybrid.
Assay [3] has as its target JAZ2 fused to the GAL4 BD (Arabidopsis thaliana) (UniProt Q9S7M2). Nature of the assay: two-hybrid.
Assay [4] concerns the target T1, nYFP-ERF109 (Arabidopsis thaliana) (UniProt Q9SZ06).
T1 sequence: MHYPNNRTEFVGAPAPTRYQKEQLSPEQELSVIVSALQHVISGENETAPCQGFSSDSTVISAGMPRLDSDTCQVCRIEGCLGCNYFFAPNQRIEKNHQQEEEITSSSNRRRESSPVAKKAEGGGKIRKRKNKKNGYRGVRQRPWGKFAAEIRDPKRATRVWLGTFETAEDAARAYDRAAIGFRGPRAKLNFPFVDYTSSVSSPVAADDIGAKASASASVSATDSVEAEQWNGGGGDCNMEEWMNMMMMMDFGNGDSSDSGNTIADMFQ
Nature of the assay: split reporter.

Assay [5] addresses JAZ5 fused to the GAL4 BD (Arabidopsis thaliana). Nature of the assay: two-hybrid.
The target in assay [6] is JAZ1 fused to the GAL4 BD (Arabidopsis thaliana) (UniProt Q9LMA8). Nature of the assay: two-hybrid.

No constants are given. Whether binding was seen depends on the method and setting. For some assays here: Binding can be weak; no strength is given. For some assays here: In cells and extracts the contact can be indirect. Tags and fused reporters may be left off the sequences shown.

Regarding “MYC3 fused to the GAL4 AD (from UniProt Q9FIP9 1-592)”, the binding entry in assay [1], in assay [2] and in assay [3] was “binds” in each case.

For the molecule “BPM1 (BiFC fusion) (Arabidopsis thaliana)”, the binding result in assay [4] was “binds”.

B1: MYB34 fused to the GAL4 AD (protein, UniProt O64399 1-295)
chain: MVRTPCCKEEGIKKGAWTPEEDQKLIAYLHLHGEGGWRTLPEKAGLKRCGKSCRLRWANYLRPDIKRGEFSPEEDDTIIKLHALKGNKWAAIATSLAGRTDNEIKNYWNTNLKKRLKQKGIDAITHKPINSTGQTGFEPKVNKPVYSSGSARLLNRVASKYAVELNRDLLTGIISGNSTVAEDSQNSGDVDSPTSTLLNKMAATSVLINTTTTYSGFSDNCSFTDEFNEFFNNEEISDIYTTVDNFGFMEELKSILSYGDASAGVIENSPEVNVADAMEFIDSWNEDDNMVGVFV
With B1, the binding result in assay [5], in assay [1], in assay [2], in assay [6] and in assay [3] was “no binding” throughout.

B2: MYB51 fused to the GAL4 AD (protein, UniProt O49782 1-352)
chain: MVRTPCCKAELGLKKGAWTPEEDQKLLSYLNRHGEGGWRTLPEKAGLKRCGKSCRLRWANYLRPDIKRGEFTEDEERSIISLHALHGNKWSAIARGLPGRTDNEIKNYWNTHIKKRLIKKGIDPVTHKGITSGTDKSENLPEKQNVNLTTSDHDLDNDKAKKNNKNFGLSSASFLNKVANRFGKRINQSVLSEIIGSGGPLASTSHTTNTTTTSVSVDSESVKSTSSSFAPTSNLLCHGTVATTPVSSNFDVDGNVNLTCSSSTFSDSSVNNPLMYCDNFVGNNNVDDEDTIGFSTFLNDEDFMMLEESCVENTAFMKELTRFLHEDENDVVDVTPVYERQDLFDEIDNYFG
With B2, the binding entry in assay [5], in assay [1], in assay [2], in assay [6] and in assay [3] was “no binding” throughout.
